The list is a part of this screen's results and no random one: it is rich in T/C values a quarter to a half above the control, in often repeated tests (any T/C) and in doses without a T/C. Other doses and runs of a compound stand elsewhere. T/C is the treated group as % of the vehicle group. Some doses have a count of surviving animals in place of a T/C: the source files T/C as zero there, which appears to mark a toxic dose or a test without result, not a measured value. Some doses without a T/C left all or most animals alive at the check, yet need not have been tolerated: the source hardly ever lists a survival T/C far under the control, and the zero likely stands for such cases as well. Survivors were counted at the toxicity check, usually on the fifth day, unless a day is given; later deaths do not show. Schedule codes are those of the source, taken here to give the interval after Q, in days (D) or hours (H), and the number of doses after X. Some entries hold several experiments; the results are listed from low to high. Some structures stand for samples that the source files as different forms (salt, stereo form or complex); doses refer to the form tested. Where survival is the endpoint, this PubChem deposit counts one and a half times the control or more as active, and values a quarter to a half above the control carry no call in these data; other NCI protocols may use other cut-offs. Brackets with × give the number of equal values in this list. Some T/C values carry the count of animals alive at the toxicity check (mostly the fifth day); where none is given, no animal had died by that day.

In the assay the test system is P388 leukemia ip, CD2F1 mice, survival T/C. Briefly: NCI In Vivo Anticancer Drug Screen. Data for tumor model P388 Leukemia (intraperitoneal) in CD2F1 (CDF1) mice. The conditions noted are these: T/C endpoint: median survival time, higher T/C = longer survival.
[1] abbreviates: dose: 50.0 mg/kg/injection, schedule: Q01DX005 (ip), vehicle: saline with Tween-80.
[2] abbreviates: dose: 100.0 mg/kg/injection, schedule: Q01DX005 (ip), vehicle: saline with Tween-80.
The mark [3] stands for this setting: dose: 200.0 mg/kg/injection, schedule: Q01DX005 (ip), vehicle: saline with Tween-80.
The mark [4] stands for this setting: dose: 200.0 mg/kg/injection, schedule: Q01DX005 (ip), vehicle: Klucel (hydroxypropylcellulose) (HPC).
Setting [5] is: dose: 400.0 mg/kg/injection, schedule: Q04DX003 (ip), vehicle: saline with Tween-80.
Setting [6] is: dose: 12.5 mg/kg/injection, schedule: Q01DX009 (ip), vehicle: saline.
Setting [7] is: dose: 25.0 mg/kg/injection, schedule: Q01DX009 (ip), vehicle: saline.
The mark [8] stands for this setting: dose: 50.0 mg/kg/injection, schedule: Q01DX009 (ip), vehicle: saline.
Setting [9] is: dose: 100.0 mg/kg/injection, schedule: Q01DX009 (ip), vehicle: saline.
Setting [10] is: dose: 200.0 mg/kg/injection, schedule: Q01DX009 (ip), vehicle: saline.
Setting [11] is: dose: 100.0 mg/kg/injection, schedule: Q01DX009 (ip), vehicle: saline with Tween-80.
Setting [12] is: dose: 200.0 mg/kg/injection, schedule: Q01DX009 (ip), vehicle: saline with Tween-80.
[13] abbreviates: dose: 120.0 mg/kg/injection, schedule: Q01DX005 (ip), vehicle: Klucel (hydroxypropylcellulose) (HPC).
[14] abbreviates: dose: 240.0 mg/kg/injection, schedule: Q01DX005 (ip), vehicle: Klucel (hydroxypropylcellulose) (HPC).

For the molecule `O=S1(=O)CCC2=CC(C(F)(F)F)=CC(C(F)(F)F)=CN21`, the survivor count under setting [1] is 5 of 5, the survivor count under setting [2] is 1 of 6 and the survivor count under setting [3] is listed as 0 of 6.

Consider `CC(SC(C)C(=O)O)C(=O)O` (configuration not stated), for which, where the note is “dose: 400.0 mg/kg/injection, schedule: Q04DX002 (ip), vehicle: saline”, the survivor count is 3 of 6.

In the case of `COc1ccc(/C=C/C(=O)C(CN(C)C)CN(C)C)cc1`, the survivor count (dose: 6.25 mg/kg/injection, schedule: Q01DX005 (ip), vehicle: saline) was 5 of 6; the survivor count (dose: 12.5 mg/kg/injection, schedule: Q01DX005 (ip), vehicle: saline) is recorded as 5 of 6; the survivor count (dose: 25.0 mg/kg/injection, schedule: Q01DX005 (ip), vehicle: saline) is recorded as 0 of 6; the survivor count (dose: 50.0 mg/kg/injection, schedule: Q01DX005 (ip), vehicle: saline) is 0 of 6; the survivor count (dose: 100.0 mg/kg/injection, schedule: Q01DX005 (ip), vehicle: saline) is listed as 0 of 6; the survivor count (dose: 200.0 mg/kg/injection, schedule: Q01DX005 (ip), vehicle: saline) was 0 of 6.

As to `c1nc(N2CCCCC2)c2[nH]cnc2n1`, the survivor count under setting [4] is listed as 1 of 5.

`CC(C)(C)/C(=N\Nc1ccc([N+](=O)[O-])cc1[N+](=O)[O-])c1ccccc1`: the survivor count is given as 0 of 6 (dose: 25.0 mg/kg/injection, schedule: Q01DX001 (ip), vehicle: saline with Tween-80); 0 of 6 (dose: 50.0 mg/kg/injection, schedule: Q01DX001 (ip), vehicle: saline with Tween-80); 0 of 6 (dose: 100.0 mg/kg/injection, schedule: Q01DX001 (ip), vehicle: saline with Tween-80).

For the molecule `CCc1ccc2c(-c3ccccc3)c3ccccc3c(-c3ccccc3)c2c1`, the survivor count by setting is: under setting [1], 5 of 5; under setting [2], 5 of 5.

On to `CCCCCCCCCCSCC(N)C(=O)O` (configuration not stated), for which, for the setting “dose: 25.0 mg/kg/injection, schedule: Q01DX009 (ip), vehicle: other”, the survivor count is given as 6 of 6.

Turning to `[C-]#[N+]C1CCCCC1.[C-]#[N+]C1CCCCC1.[Ni].[S-]c1ccccc1.[S-]c1ccccc1`, the survivor count reads like this: (dose: 200.0 mg/kg/injection, schedule: Q04DX003 (ip), vehicle: saline with Tween-80) 4 of 6; under setting [5], 0 of 6.

Regarding `CCOC(=O)/C=C/C(=O)N1CCN(C(=O)/C=C/C(=O)OCC)C(C)C1` (configuration not stated), the T/C under setting [4] is 125 and 126 % of control; the T/C (dose: 300.0 mg/kg/injection, schedule: Q01DX005 (ip), vehicle: Klucel (hydroxypropylcellulose) (HPC)) is 130 % of control.

For `O=C1OC(CO)C(O)C2OC(=O)c3c(c(O)c(O)c(O)c3-c3c(O)c(O)c(O)c4c3C(=O)OC2C4O)-c2c1cc(O)c(O)c2O` (configuration not stated), the survivor count (dose: 6.25 mg/kg/injection, schedule: Q01DX009 (ip), vehicle: saline) is 4 of 6; the survivor count under setting [6] is 4 of 6; the survivor count under setting [7] is given as 0 of 6; the survivor count under setting [8] is 0 of 6; the survivor count under setting [9] was 0 of 6; the survivor count under setting [10] is recorded as 0 of 6.

As for `O=C1c2cscc2C(=O)c2c(Cl)sc(Cl)c21`, the survivor count (dose: 50.0 mg/kg/injection, schedule: Q01DX009 (ip), vehicle: saline with Tween-80) is given as 6 of 6; the survivor count under setting [11] was 3 of 6; the survivor count under setting [12] is recorded as 1 of 6.

For the molecule `COc1ccc2nc(NCCNCCO)cc(NCCNCCO)c2c1`, the survivor count reads like this: (dose: 120.0 mg/kg/injection, schedule: Q01DX005 (ip), vehicle: water) 0 of 6; (dose: 240.0 mg/kg/injection, schedule: Q01DX005 (ip), vehicle: water) 0 of 6.

For `COC1=CC(=O)C=C(CO)C1=O`, the survivor count under setting [6] was 4 of 6; the survivor count under setting [7] was 0 of 6; the survivor count under setting [8] was 0 of 6; the survivor count under setting [9] is given as 0 of 6; the survivor count under setting [10] is on record as 0 of 6.

In the case of `CCOC(=O)C(=CC(CC)(C(=O)OCC)C(=O)OCC)C(=O)OCC`, the T/C under setting [5] was 125 % of control.

In the case of `O=c1cc(O)cc[nH]1`, the T/C was 98, 103, 106 % of control (2×) under setting [7]; 96, 98, 100, 103 % of control under setting [8]; 100, 101 (2×), 126 % of control under setting [9]; 99, 100 (2×), 105 % of control under setting [10].

Take `CSC(SC)(C(=O)O)c1cc(-c2c(Cl)cccc2Cl)no1`: the survivor count (dose: 240.0 mg/kg/injection, schedule: Q01DX005 (ip), vehicle: saline with Tween-80) was 3 of 6.

In the case of `O=C(Nc1cccc2c(OC(=O)C(Cl)Cl)c(N=Nc3ccc(S(=O)(=O)Nc4nccs4)cc3)cc(N=Nc3ccc(S(=O)(=O)Nc4nccs4)cc3)c12)C(Cl)Cl`, the survivor count under setting [12] is 2 of 6 and 3 of 6.

Take `CN(C)c1cc(N(C)C)c2ccccc2n1`: the survivor count (dose: 50.0 mg/kg/injection, schedule: Q01DX009 (ip), vehicle: Klucel (hydroxypropylcellulose) (HPC)) is 0 of 6 and 2 of 6; the survivor count (dose: 200.0 mg/kg/injection, schedule: Q01DX009 (ip), vehicle: Klucel (hydroxypropylcellulose) (HPC)) is 0 of 6.

Consider `CCN(CC)CCNC(=O)c1ccc2c(c1)C(=O)c1ccccc1C2=O`, for which the survivor count (dose: 400.0 mg/kg/injection, schedule: Q04DX003 (ip), vehicle: saline) is recorded as 0 of 6.

Regarding `CC1=CC(Cc2ccccc2)N(C)C(C#N)C1` (configuration not stated), the survivor count was 2 of 5 under setting [2] and 0 of 5 under setting [3].

Take `O=[N+]([O-])c1ccc(/C=C/Sc2ccccc2)o1`: the survivor count (dose: 200.0 mg/kg/injection, schedule: Q01DX009 (ip), vehicle: suspension in saline) is given as 6 of 6.

Regarding `Cc1ccc2c(C(=O)O)cc(N)cc2n1`, the survivor count is 4 of 6 (dose: 15.0 mg/kg/injection, schedule: Q01DX005 (ip), vehicle: Klucel (hydroxypropylcellulose) (HPC)); 1 of 6 (dose: 30.0 mg/kg/injection, schedule: Q01DX005 (ip), vehicle: Klucel (hydroxypropylcellulose) (HPC)); 0 of 6 (dose: 60.0 mg/kg/injection, schedule: Q01DX005 (ip), vehicle: Klucel (hydroxypropylcellulose) (HPC)); 0 of 6 under setting [13]; 0 of 6 under setting [14].

For the molecule `Nc1cc(N)cc(Cc2ccccc2)c1`, the survivor count was 1 of 6 under setting [12] and 1 of 6 (dose: 400.0 mg/kg/injection, schedule: Q01DX009 (ip), vehicle: saline with Tween-80).

Take `CCOC1OCN(C2CCCCC2)CC1(C)C` (configuration not stated): the T/C under setting [11] was 137 % of control [5 of 6 alive].

Turning to `CCO/C=C1/N=C(Cc2ccccc2)OC1=O`, under “dose: 240.0 mg/kg/injection, schedule: Q01DX005 (ip), vehicle: saline + Tween-80 + alcohol”, the survivor count is 6 of 6.

As to `CC1(C)CC(=O)N(CN2CCCCC2)C(=O)C1`, the survivor count (dose: 400.0 mg/kg/injection, schedule: Q04DX002 (ip), vehicle: Klucel (hydroxypropylcellulose) (HPC)) was 3 of 6.

For the molecule `CC1=C(C(=O)Nc2ccccc2C)C(c2cccc([N+](=O)[O-])c2)C(C(=O)Nc2ccccc2C)=C(C)N1`, the survivor count reads like this: under setting [13], 6 of 6; under setting [14], 6 of 6.
